The values below come from paper PMC11789580.

No constants are given. Whether binding was seen depends on the method and setting. In cells and extracts the contact can be indirect. Some results given as binding are weak or reduced against the parent protein; the word gives no strength. Where a sequence is shown, tags or fusion partners need not be part of it.

Sequences and labels used below:
B1: MORF8-cYFP (protein, UniProt Q9LKA5 57-395)
chain: GGLVSVKGLSTQATSSSLNDPNPNWSNRPPKETILLDGCDFEHWLVVVEPPQGEPTRDEIIDSYIKTLAQIVGSEDEARMKIYSVSTRCYYAFGALVSEDLSHKLKELSNVRWVLPDSYLDVRNKDYGGEPFIDGKAVPYDPKYHEEWIRNNARANERNRRNDRPRNNDRSRNFERRRENMAGGPPPQRPPMGGPPPPPHIGGSAPPPPHMGGSAPPPPHMGQNYGPPPPNNMGGPRHPPPYGAPPQNNMGGPRPPQNYGGTPPPNYGGAPPANNMGGAPPPNYGGGPPPQYGAVPPPQYGGAPPQNNNYQQQGSGMQQPQYQNNYPPNRDGSGNPYQG
B2: ORRM1-cYFP (protein, UniProt Q8L440 55-374)
chain: SSAISAPPSSTVLTRNSYWMVLLDKPPHWVSSKSAMVDYYVEILAKVLGNEKDAQVSIYDASFDTHFGFCCHIDEDASRQLASLPGVVSIRPEQDYSSEKKNYGIGSHKGVSLFDHGTVKHWMVRIDKPGVGIVTKAQMVDHCVQLLSKVLWNEKDAQMCLYHVSWQSDFGFCCDLDERSAVELAGVPGVLAVVPDNSFESLNKDYEGDSTQDSRDQDDSESPPVKTKKLFITGLSFYTSEKTLRAAFEGFGELVEVKIIMDKISKRSKGYAFLEYTTEEAAGTALKEMNGKIINGWMIVVDVAKTKPFRQNRSQPSFGL
B3: MORF2-cYFP (protein, UniProt O22793 49-219)
chain: CGANRSGSTYSPLNSGSNFSDRPPTEMAPLFPGCDYEHWLIVMDKPGGEGATKQQMIDCYIQTLAKVVGSEEEAKKRIYNVSCERYLGFGCEIDEETSTKLEGLPGVLFVLPDSYVDPENKDYGAELFVNGEIVQRSPERQRRVEPQPQRAQDRPRYNDRTRYSRRRENTR
B4: MORF9-cYFP (protein, UniProt Q9LPZ1 59-232)
chain: AATVDSDYSSKRSNSNEQRETIMLPGCDYNHWLIVMEFPKDPAPSRDQMIDTYLNTLATVLGSMEEAKKNMYAFSTTTYTGFQCTIDEETSEKFKGLPGVLWVLPDSYIDVKNKDYGGDKYINGEIIPCTYPTYQPKQRNNTKYQSKRYERKRDGPPPPEQRKPRQEPAASDSS
B5: CRR28 (protein, UniProt Q0WQW5 41-638)
chain: ASTAGNHHQRIFSLAETCSDMSQLKQLHAFTLRTTYPEEPATLFLYGKILQLSSSFSDVNYAFRVFDSIENHSSFMWNTLIRACAHDVSRKEEAFMLYRKMLERGESSPDKHTFPFVLKACAYIFGFSEGKQVHCQIVKHGFGGDVYVNNGLIHLYGSCGCLDLARKVFDEMPERSLVSWNSMIDALVRFGEYDSALQLFREMQRSFEPDGYTMQSVLSACAGLGSLSLGTWAHAFLLRKCDVDVAMDVLVKNSLIEMYCKCGSLRMAEQVFQGMQKRDLASWNAMILGFATHGRAEEAMNFFDRMVDKRENVRPNSVTFVGLLIACNHRGFVNKGRQYFDMMVRDYCIEPALEHYGCIVDLIARAGYITEAIDMVMSMPMKPDAVIWRSLLDACCKKGASVELSEEIARNIIGTKEDNESSNGNCSGAYVLLSRVYASASRWNDVGIVRKLMSEHGIRKEPGCSSIEINGISHEFFAGDTSHPQTKQIYQQLKVIDDRLRSIGYLPDRSQAPLVDATNDGSKEYSLRLHSERLAIAFGLINLPPQTPIRIFKNLRVCNDCHEVTKLISKVFNTEIIVRDRVRFHHFKDGSCSCLDYW
B6: OTP84 (protein, UniProt Q7Y211 45-890)
chain: ASAVSGAPSIFISQSRSPEWWIDLLRSKVRSNLLREAVLTYVDMIVLGIKPDNYAFPALLKAVADLQDMELGKQIHAHVYKFGYGVDSVTVANTLVNLYRKCGDFGAVYKVFDRISERNQVSWNSLISSLCSFEKWEMALEAFRCMLDENVEPSSFTLVSVVTACSNLPMPEGLMMGKQVHAYGLRKGELNSFIINTLVAMYGKLGKLASSKVLLGSFGGRDLVTWNTVLSSLCQNEQLLEALEYLREMVLEGVEPDEFTISSVLPACSHLEMLRTGKELHAYALKNGSLDENSFVGSALVDMYCNCKQVLSGRRVFDGMFDRKIGLWNAMIAGYSQNEHDKEALLLFIGMEESAGLLANSTTMAGVVPACVRSGAFSRKEAIHGFVVKRGLDRDRFVQNTLMDMYSRLGKIDIAMRIFGKMEDRDLVTWNTMITGYVFSEHHEDALLLLHKMQNLERKVSKGASRVSLKPNSITLMTILPSCAALSALAKGKEIHAYAIKNNLATDVAVGSALVDMYAKCGCLQMSRKVFDQIPQKNVITWNVIIMAYGMHGNGQEAIDLLRMMMVQGVKPNEVTFISVFAACSHSGMVDEGLRIFYVMKPDYGVEPSSDHYACVVDLLGRAGRIKEAYQLMNMMPRDFNKAGAWSSLLGASRIHNNLEIGEIAAQNLIQLEPNVASHYVLLANIYSSAGLWDKATEVRRNMKEQGVRKEPGCSWIEHGDEVHKFVAGDSSHPQSEKLSGYLETLWERMRKEGYVPDTSCVLHNVEEDEKEILLCGHSEKLAIAFGILNTSPGTIIRVAKNLRVCNDCHLATKFISKIVDREIILRDVRRFHRFKNGTCSCGDYW
B7: OTP81 (protein, UniProt O82380 43-738)
chain: LRQLKQTHGHMIRTGTFSDPYSASKLFAMAALSSFASLEYARKVFDEIPKPNSFAWNTLIRAYASGPDPVLSIWAFLDMVSESQCYPNKYTFPFLIKAAAEVSSLSLGQSLHGMAVKSAVGSDVFVANSLIHCYFSCGDLDSACKVFTTIKEKDVVSWNSMINGFVQKGSPDKALELFKKMESEDVKASHVTMVGVLSACAKIRNLEFGRQVCSYIEENRVNVNLTLANAMLDMYTKCGSIEDAKRLFDAMEEKDNVTWTTMLDGYAISEDYEAAREVLNSMPQKDIVAWNALISAYEQNGKPNEALIVFHELQLQKNMKLNQITLVSTLSACAQVGALELGRWIHSYIKKHGIRMNFHVTSALIHMYSKCGDLEKSREVFNSVEKRDVFVWSAMIGGLAMHGCGNEAVDMFYKMQEANVKPNGVTFTNVFCACSHTGLVDEAESLFHQMESNYGIVPEEKHYACIVDVLGRSGYLEKAVKFIEAMPIPPSTSVWGALLGACKIHANLNLAEMACTRLLELEPRNDGAHVLLSNIYAKLGKWENVSELRKHMRVTGLKKEPGCSSIEIDGMIHEFLSGDNAHPMSEKVYGKLHEVMEKLKSNGYEPEISQVLQIIEEEEMKEQSLNLHSEKLAICYGLISTEAPKVIRVIKNLRVCGDCHSVAKLISQLYDREIIVRDRYRFHHFRNGQCSCNDFW
B8: DOT4 (protein, UniProt Q9SN39 29-871)
chain: SGVRVRKYVIFNRASLRTVSDCVDSITTFDRSVTDANTQLRRFCESGNLENAVKLLCVSGKWDIDPRTLCSVLQLCADSKSLKDGKEVDNFIRGNGFVIDSNLGSKLSLMYTNCGDLKEASRVFDEVKIEKALFWNILMNELAKSGDFSGSIGLFKKMMSSGVEMDSYTFSCVSKSFSSLRSVHGGEQLHGFILKSGFGERNSVGNSLVAFYLKNQRVDSARKVFDEMTERDVISWNSIINGYVSNGLAEKGLSVFVQMLVSGIEIDLATIVSVFAGCADSRLISLGRAVHSIGVKACFSREDRFCNTLLDMYSKCGDLDSAKAVFREMSDRSVVSYTSMIAGYAREGLAGEAVKLFEEMEEEGISPDVYTVTAVLNCCARYRLLDEGKRVHEWIKENDLGFDIFVSNALMDMYAKCGSMQEAELVFSEMRVKDIISWNTIIGGYSKNCYANEALSLFNLLLEEKRFSPDERTVACVLPACASLSAFDKGREIHGYIMRNGYFSDRHVANSLVDMYAKCGALLLAHMLFDDIASKDLVSWTVMIAGYGMHGFGKEAIALFNQMRQAGIEADEISFVSLLYACSHSGLVDEGWRFFNIMRHECKIEPTVEHYACIVDMLARTGDLIKAYRFIENMPIPPDATIWGALLCGCRIHHDVKLAEKVAEKVFELEPENTGYYVLMANIYAEAEKWEQVKRLRKRIGQRGLRKNPGCSWIEIKGRVNIFVAGDSSNPETENIEAFLRKVRARMIEEGYSPLTKYALIDAEEMEKEEALCGHSEKLAMALGIISSGHGKIIRVTKNLRVCGDCHEMAKFMSKLTRREIVLRDSNRFHQFKDGHCSCRGFW
B9: ORRM1-cLUC (protein, UniProt Q8L440 55-374)
chain: B2 chain
B10: ORRM1-HA (protein, UniProt Q8L440 55-374)
chain: B2 chain

The target of the first assay is T1, RPOTp-nYFP (Arabidopsis) (UniProt O24600).
T1 sequence: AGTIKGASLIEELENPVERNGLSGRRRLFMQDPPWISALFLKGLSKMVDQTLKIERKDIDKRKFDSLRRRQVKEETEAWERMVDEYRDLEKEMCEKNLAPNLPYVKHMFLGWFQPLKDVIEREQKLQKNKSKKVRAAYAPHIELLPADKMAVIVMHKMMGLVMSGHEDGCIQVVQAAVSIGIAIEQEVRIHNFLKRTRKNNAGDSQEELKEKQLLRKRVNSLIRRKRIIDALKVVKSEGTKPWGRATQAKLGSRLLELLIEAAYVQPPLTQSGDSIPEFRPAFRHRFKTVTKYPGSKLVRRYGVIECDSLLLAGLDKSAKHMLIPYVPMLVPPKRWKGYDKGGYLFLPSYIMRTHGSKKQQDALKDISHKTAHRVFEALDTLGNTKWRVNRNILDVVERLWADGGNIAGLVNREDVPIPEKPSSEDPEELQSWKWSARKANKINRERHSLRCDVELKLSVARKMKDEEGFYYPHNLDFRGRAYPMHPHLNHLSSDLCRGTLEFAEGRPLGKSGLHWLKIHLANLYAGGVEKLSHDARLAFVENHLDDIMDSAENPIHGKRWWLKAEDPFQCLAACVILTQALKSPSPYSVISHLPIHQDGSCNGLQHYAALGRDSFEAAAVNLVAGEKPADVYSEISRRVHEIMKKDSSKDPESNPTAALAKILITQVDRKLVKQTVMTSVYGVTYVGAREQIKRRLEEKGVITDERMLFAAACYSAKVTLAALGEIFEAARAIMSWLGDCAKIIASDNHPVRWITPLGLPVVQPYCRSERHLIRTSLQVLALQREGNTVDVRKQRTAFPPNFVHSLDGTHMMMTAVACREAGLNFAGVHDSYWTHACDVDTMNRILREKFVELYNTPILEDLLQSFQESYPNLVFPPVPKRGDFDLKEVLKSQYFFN
The experiment in a line: split reporter; BiFC: nYFP and cYFP fusions co-infiltrated into epidermal cells of 4-week-old Nicotiana benthamiana leaves, 48 h at 22 °C, confocal microscopy.
With B1, the binding entry is recorded as “binds”.

For the molecule B2, the binding entry is on record as “binds”.

For B3, the binding entry is on record as “binds”.

Turning to B4, the binding entry was “binds”.

The next assay addresses T2, RPOTp-nLUC (Arabidopsis) (UniProt O24600).
T2 sequence: T1 sequence
The experiment in a line: split reporter; firefly luciferase complementation imaging (LCI): nLUC and cLUC fusions co-infiltrated into 4-week-old Nicotiana benthamiana leaves, 3 days, 1 mM D-luciferin, CCD camera.
On to B5, for which the binding result was “no binding”.

For the molecule B6, the binding result is reported as “binds”.

Regarding B7, the binding result is “no binding”.

With B8, the binding entry is “no binding”.

Turning to B9, the binding entry was “binds”.

A further assay deals with T3, RPOTp-FLAG (Arabidopsis) (UniProt O24600).
T3 sequence: T1 sequence
The experiment in a line: co-IP; RPOTp-FLAG and HA-tagged proteins co-infiltrated into Nicotiana benthamiana leaves; lysate on anti-FLAG M2 magnetic beads 2 h at 4 °C, eluted with 3xFLAG peptide; blots with anti-FLAG and anti-HA.
On to B10, for which the binding result is “binds”.
